The results in this text go back to the supplement of paper PMC12823440, “Inhibitors supercharge kinase turnover through native proteolytic circuits” (Nature, 2025).

Protein sequences, listed by entry. Tags and fused reporters are not part of them. Lines headed by an entry give the natural chain unless they say otherwise; changes in a name come on top.
UniProt P51451: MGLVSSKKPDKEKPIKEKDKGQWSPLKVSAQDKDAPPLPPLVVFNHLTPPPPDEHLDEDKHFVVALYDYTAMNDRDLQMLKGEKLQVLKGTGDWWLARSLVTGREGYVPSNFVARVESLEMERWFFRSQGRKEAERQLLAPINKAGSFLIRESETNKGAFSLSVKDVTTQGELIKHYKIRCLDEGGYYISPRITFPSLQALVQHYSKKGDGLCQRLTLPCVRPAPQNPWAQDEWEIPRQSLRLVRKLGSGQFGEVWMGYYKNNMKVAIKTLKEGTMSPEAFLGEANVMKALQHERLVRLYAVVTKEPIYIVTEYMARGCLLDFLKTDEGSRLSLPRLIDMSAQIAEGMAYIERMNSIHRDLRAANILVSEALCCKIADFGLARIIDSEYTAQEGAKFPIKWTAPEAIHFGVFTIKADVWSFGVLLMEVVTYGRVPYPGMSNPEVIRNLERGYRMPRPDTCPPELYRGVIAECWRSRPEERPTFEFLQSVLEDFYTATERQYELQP

The structures appear in SMILES notation. Structures can show the parent of a compound that is named as a salt. The list shows a part of the results. Hit calls seldom repeat between salt and free forms of one compound.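 In K562 cells expressing nanoluciferase-fused kinases, luminescence was recorded at 4 h intervals between 2 and 18 h, normalized as percent of control with DMSO at 100% and a positive control at 0%. A significant (2 sigma) signal drop marks a time point as decreased. The authors' rule for a hit is not shown and takes in more than the number of time points.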

In the assay the target is BLK (UniProt P51451). Briefly: number of time points (of 5) at which kinase-Nluc abundance scored as decreased, DMSO-normalised (count); higher = more persistent destabilization. As to conditions: K562; 2-18 h.
For `O=C(Nc1cccc(C(F)(F)F)c1)c1cccc2cc(Oc3cc(CO)ncn3)ccc12` (10 µM), the “number of time points” value came out at 0. Under `Oc1ccc(/C=C/c2cc(O)cc(O)c2)cc1` [Resveratrol] (10 µM) stands 0; under `O=c1[nH]c(C2CCCN2)nc2c1oc1ccc(Cl)cc12` (stereo unspecified) [XL413 (hydrochloride)] (10 µM), 0; under `CN(c1ccc(NC(=O)Nc2ccc(OC(F)(F)F)cc2)cc1)c1ccnc(Nc2cccc(S(N)(=O)=O)c2)n1` (2.5 µM), 0.

For `C=C[C@@](C)(/C=C/c1ccc(O)cc1)CCC=C(C)C` [Bakuchiol] (10 µM), the “number of time points” value worked out at 0. The value for `COc1cc2ncnc(-n3nc(-c4ccccn4)nc3N)c2cc1OC` (10 µM) was 0; that for `CNc1nc(Nc2ccc(C(=O)N3CCOCC3)cc2OC)ncc1Cl` (2.5 µM) was 0; that for `CC(C)S(=O)(=O)c1ccc2nccc(Nc3ccc4scnc4c3)c2c1` (10 µM) was 0. Take `CC(C)(O)[C@H]1CC[C@H](Nc2ccc3ncc(-c4cccc(C(F)(F)F)c4)n3n2)CC1` (10 µM): the “number of time points” value was determined as 0. For the compound `CCN(CC)c1ccc2cc(-c3nc4cc(C)ccc4o3)c(=O)oc2c1` (10 µM), the “number of time points” value stood at 0.

Regarding `CN(C)S(=O)(=O)c1ccc2c(c1)/C(=C/c1cc3c([nH]1)CCCC3)C(=O)N2` (2.5 µM), the “number of time points” value amounted to 0. Take `C=CC(=O)Nc1cc(Nc2nccc(-n3cc(CN(C)C)c(-c4ccccc4)n3)n2)c(OC)cc1N1CCOCC1` [Lazertinib] (10 µM): the “number of time points” value came out at 0. As for `Cc1ccc2c(Nc3cccc(Cl)c3F)nccc2c1NC(=O)c1csc2c(N)ncnc12` [Belvarafenib] (10 µM), the “number of time points” value was found to be 0. Turning to `Oc1cc(O)c2c(c1)OC1(c3ccc(O)c(O)c3)Oc3cc(O)c4c(c3C2C1O)OC(c1ccc(O)c(O)c1)C(O)C4` (stereo unspecified) [Procyanidin A1] (10 µM), the “number of time points” value stood at 0. The value for `c1ccc(-c2nc3c(c(-n4ccc5cnccc54)n2)CCC3)nc1` (10 µM) was 0. Take `Cc1cc(C)nc(NS(=O)(=O)c2ccc(NC(=S)NC(=O)COc3ccc(Br)cc3Cl)cc2)n1` (2.5 µM): the “number of time points” value worked out at 0. Under `Cc1ccc(NC(=O)c2ccc(CN(CCN(C)C)C(=O)c3cccnc3)cc2)cc1Nc1nccc(-c2cccnc2)n1` [PDGFRα kinase inhibitor 1] (10 µM) stands 0; under `C[C@H](Nc1ncnc2[nH]cnc12)c1cc2ccc(F)cc2nc1-c1ccccn1` (10 µM), 0.

Consider `CN(C)CCC=C1c2ccccc2CCc2ccccc21` [Amitriptyline (hydrochloride)] (2.5 µM), for which the “number of time points” value came out at 0. For the compound `O=C1/C(=C\c2ccc(Cl)cc2)C=C(c2ccccc2)N1c1ccc(O)cc1` (2.5 µM), the “number of time points” value amounted to 0.

As for `C[C@@H]1CCNC(=O)c2cc3ccc(C(=O)Nc4nc5ccccc5n4CCCN(C)C)cc3n21` (10 µM), the “number of time points” value is 0. For `COc1c(Nc2cc(C)[nH]n2)nc(Sc2ccc(S(=O)(=O)Cc3cccc([N+](=O)[O-])c3F)cc2F)nc1N1CCCCC1` [Centrinone-B] (2.5 µM), the “number of time points” value came out at 0. The value for `COc1ccc(/C=C/C(=O)C2(C(=O)/C=C/c3ccc(OC)c(OC)c3)CCCCC2)cc1OC` (2.5 µM) was 0; that for `CN(C)c1nc2c(Br)c(Br)c(Br)c(Br)c2[nH]1` (10 µM) was 0. Take `O=C(Nc1nc(=O)n(Cc2ccc(Cl)cc2)s1)c1ccc(Cl)cc1` (10 µM): the “number of time points” value amounted to 0.

For the compound `Nc1n[nH]c2nc(-c3ccc(NS(=O)(=O)c4cc(Cl)ccc4F)cc3)cnc12` (10 µM), the “number of time points” value was found to be 0.
